This passage reports binding results from publication PMC7755605.

Protein sequences, listed by entry. Tags and fused reporters are not part of them. Residues count along the entry.
UniProt P97546, residues 29-393: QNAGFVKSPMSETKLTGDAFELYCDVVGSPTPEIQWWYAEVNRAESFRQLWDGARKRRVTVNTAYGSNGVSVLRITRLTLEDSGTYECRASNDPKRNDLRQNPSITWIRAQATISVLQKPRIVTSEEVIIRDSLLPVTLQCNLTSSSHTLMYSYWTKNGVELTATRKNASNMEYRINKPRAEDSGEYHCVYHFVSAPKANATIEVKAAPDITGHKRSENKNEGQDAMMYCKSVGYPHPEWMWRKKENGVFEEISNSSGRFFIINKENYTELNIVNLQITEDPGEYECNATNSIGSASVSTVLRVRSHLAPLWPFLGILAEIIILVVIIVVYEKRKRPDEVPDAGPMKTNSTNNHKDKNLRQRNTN
UniProt P97300, residues 29-397: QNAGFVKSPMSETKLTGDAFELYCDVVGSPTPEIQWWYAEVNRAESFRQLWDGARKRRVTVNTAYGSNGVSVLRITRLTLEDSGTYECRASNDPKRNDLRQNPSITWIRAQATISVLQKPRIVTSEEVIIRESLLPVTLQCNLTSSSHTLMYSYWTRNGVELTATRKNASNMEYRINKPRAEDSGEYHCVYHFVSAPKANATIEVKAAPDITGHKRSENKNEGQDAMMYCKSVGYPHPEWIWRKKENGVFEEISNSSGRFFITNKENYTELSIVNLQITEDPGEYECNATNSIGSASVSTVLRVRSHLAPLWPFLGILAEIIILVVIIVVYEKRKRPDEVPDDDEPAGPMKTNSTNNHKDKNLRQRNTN

These are yes or no findings as the source states them, for the method shown. In cells and extracts the contact can be indirect. Some entries that bind do so weakly or less than the wild type. For part of these data: Sequences can lack the tags named with a protein.

Assay [1] addresses neuroplastin isoforms, endogenous in rat forebrain (rat (endogenous in forebrain)) (UniProt P97546). In words: co-IP; RIPA homogenates of forebrain (3 weeks-old rats) or hippocampus (2 weeks-old Nptn+/+ and Nptn-/- mice); rabbit anti-neuroplastin antibody overnight, Protein G Sepharose; pre-immune IgG as control; blot with anti-TRAF6.
For assay [2], the target named is neuroplastin isoforms, endogenous in mouse hippocampus (mouse (endogenous in hippocampus)) (UniProt P97300). The assay is described as above.
In assay [3] the target is GFP-tagged neuroplastin 65 without the DDEP insert (UniProt P97546). In words: co-IP; HEK cells co-transfected for 24 h with GFP-tagged neuroplastin constructs and Flag-TRAF6; RIPA lysate; anti-GFP magnetic beads (uMACS), 4 h at 4 C; blot with anti-Flag and anti-GFP.

B1: TRAF6, endogenous in rat forebrain (protein, UniProt B5DF45 1-530)
chain: MSLLNCENSCASSQSSSDCCAAMANSCSAAMKDDSVSGCVSTGNLSSSFMEEIQGYDVEFDPPLESKYECPICLMALREAVQTPCGHRFCKACITKSIRDAGHKCPVDNEILLENQLFPDNFAKREILSLTVKCPNKGCVQKMELRHLEDHQVHCEFALVICPQCQRFFQKCQINKHIIEDCPRRQVSCVNCAVPMPYEEKEIHDQSCPLANIICEYCGTILIREQMPNHYDLDCPTAPVPCTFSVFGCHEKMQRNHLARHLQENTQLHMRLLAQAVHNVNLSLRPCDASSPSRGCRPEDPNYEETVKQLEGRLVRQDHQIRELTAKMETQSMHVSELKRTIRSLEDKVAEMEAQQCNGIYIWKIGNFGMHLKSQEEERPVVIHSPGFYTGRPGYKLCMRLHLQLPTAQRCANYISLFVHTMQGEYDSHLPWPFQGTIRLTILDQSEAVIRQNHEEVMDAKPELLAFQRPTIPRNPKGFGYVTFMHLEALRQGTFIKDDTLLVRCEVSTRFDMGGLRKEGFQPRSTDAGV
In the case of B1, in assay [1], the binding result is “binds”.

B2: TRAF6, endogenous in mouse hippocampus (protein, UniProt P70196 1-530)
chain: MSLLNCENSCGSSQSSSDCCAAMAASCSAAVKDDSVSGSASTGNLSSSFMEEIQGYDVEFDPPLESKYECPICLMALREAVQTPCGHRFCKACIIKSIRDAGHKCPVDNEILLENQLFPDNFAKREILSLTVKCPNKGCLQKMELRHLEDHQVHCEFALVNCPQCQRPFQKCQVNTHIIEDCPRRQVSCVNCAVSMAYEEKEIHDQSCPLANIICEYCGTILIREQMPNHYDLDCPTAPIPCTFSVFGCHEKMQRNHLARHLQENTQLHMRLLAQAVHNVNLALRPCDAASPSRGCRPEDPNYEETIKQLESRLVRQDHQIRELTAKMETQSMYVGELKRTIRTLEDKVAEMEAQQCNGIYIWKIGNFGMHLKSQEEERPVVIHSPGFYTGRPGYKLCMRLHLQLPTAQRCANYISLFVHTMQGEYDSHLPWPFQGTIRLTILDQSEALIRQNHEEVMDAKPELLAFQRPTIPRNPKGFGYVTFMHLEALRQGTFIKDDTLLVRCEVSTRFDMGGLRKEGFQPRSTDAGV
Consider B2, for which the binding entry in assay [2] is given as “binds”.

B3: mouse N-terminal Flag-tagged TRAF6 (protein, UniProt P70196 1-530)
chain: MSLLNCENSCGSSQSSSDCCAAMAASCSAAVKDDSVSGSASTGNLSSSFMEEIQGYDVEFDPPLESKYECPICLMALREAVQTPCGHRFCKACIIKSIRDAGHKCPVDNEILLENQLFPDNFAKREILSLTVKCPNKGCLQKMELRHLEDHQVHCEFALVNCPQCQRPFQKCQVNTHIIEDCPRRQVSCVNCAVSMAYEEKEIHDQSCPLANIICEYCGTILIREQMPNHYDLDCPTAPIPCTFSVFGCHEKMQRNHLARHLQENTQLHMRLLAQAVHNVNLALRPCDAASPSRGCRPEDPNYEETIKQLESRLVRQDHQIRELTAKMETQSMYVGELKRTIRTLEDKVAEMEAQQCNGIYIWKIGNFGMHLKSQEEERPVVIHSPGFYTGRPGYKLCMRLHLQLPTAQRCANYISLFVHTMQGEYDSHLPWPFQGTIRLTILDQSEALIRQNHEEVMDAKPELLAFQRPTIPRNPKGFGYVTFMHLEALRQGTFIKDDTLLVRCEVSTRFDMGGLRKEGFQPRSTDAGV
As to B3, the binding result in assay [3] is given as “binds”.
